Test results from ChEMBL document CHEMBL5518206, “Hit-to-Lead Identification and Validation of a Triaromatic Pleuromutilin Antibiotic Candidate” (J Med Chem, 2024).
Values after ≈ are worked out from the molar mass of the structure shown.

Columns and labels:
[1] = Solubility of the compound in Dulbecco's PBS at 20 degree C measured after 24 hrs; conditions: buffer
in vitro = conditions: human, Caco-2

Which solubility at 24 h [1] does the source give for `C=C[C@]1(C)C[C@@H](OC(=O)Cn2cc(-c3ccc(Cn4cnc5c(N6CCN(C)CC6)ncnc54)cc3)nn2)[C@]2(C)[C@H](C)CC[C@]3(CCC(=O)[C@H]32)[C@@H](C)[C@@H]1O` here?
The solubility at 24 h was 23 µM (≈ 16.9 µg/mL).

What about the Papp A→B at 2 h, 20 µM (in vitro) of the same molecule?
The Papp A→B at 2 h, 20 µM was 2.38 ×10⁻⁶ cm/s.
